Taken from: PubChem BioAssay AID1259254 (NCATS, 2017)
This is one part, drawn at random, of about 59,000 reagents. Over the whole deposit, about 1,550 (2.6%) got an active call. 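G2 share is only a proxy for re-replication; each gene was hit by three separate siRNAs, and active genes were retested.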 Entries without a mark were called inactive. Reagents against one gene are numbered here. Not all columns of the deposit are shown. Not given: the amount of reagent.

- Aim: 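Finding genes that stop cells copying their DNA twice in one cycle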 (primary screen)
- Cell system: human HCT116 colorectal cancer cells
- Reagents: single siRNA against human genes
- Time to read-out: 3 days
- Detection: 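Imaged Hoechst DNA stain sorts each cell into a cycle phase by DNA amount; per plate, G2 fraction set to 0% for non-targeting and 100% for GMNN siRNA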
- Scale: G2 robust z-score: higher = more G2 cells, more excess DNA replication
- Hit rule: 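Active siRNAs have a G2 robust z of 5 or more median absolute deviations over the median, which in these data means about 38% or higher of GMNN control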

{"Target gene": "KLRD1 (killer cell lectin like receptor D1)", "reagent no.": 1, "G2 robust z-score": -1.04}
{"Target gene": "KLRD1 (killer cell lectin like receptor D1)", "reagent no.": 2, "G2 robust z-score": -0.377}
{"Target gene": "KLRD1 (killer cell lectin like receptor D1)", "reagent no.": 3, "G2 robust z-score": -0.376}
{"Target gene": "SV2B (synaptic vesicle glycoprotein 2B)", "reagent no.": 1, "G2 robust z-score": -0.582}
{"Target gene": "SV2B (synaptic vesicle glycoprotein 2B)", "reagent no.": 2, "G2 robust z-score": 1.09}
{"Target gene": "SV2B (synaptic vesicle glycoprotein 2B)", "reagent no.": 3, "G2 robust z-score": -0.74}
{"Target gene": "MEIS1 (Meis homeobox 1)", "reagent no.": 1, "G2 robust z-score": -0.588}
{"Target gene": "MEIS1 (Meis homeobox 1)", "reagent no.": 2, "G2 robust z-score": -0.134}
{"Target gene": "MEIS1 (Meis homeobox 1)", "reagent no.": 3, "G2 robust z-score": 0.533}
{"Target gene": "LINC00615 (long independently transcribed non-coding RNA 615)", "reagent no.": 1, "G2 robust z-score": 0.423}
{"Target gene": "LINC00615 (long independently transcribed non-coding RNA 615)", "reagent no.": 2, "G2 robust z-score": 1.25}
{"Target gene": "LINC00615 (long independently transcribed non-coding RNA 615)", "reagent no.": 3, "G2 robust z-score": -1.09}
{"Target gene": "EMB (embigin)", "reagent no.": 1, "G2 robust z-score": -0.852}
{"Target gene": "EMB (embigin)", "reagent no.": 2, "G2 robust z-score": -0.745}
{"Target gene": "EMB (embigin)", "reagent no.": 3, "G2 robust z-score": -0.326}
{"Target gene": "KCNQ4 (potassium voltage-gated channel subfamily Q member 4)", "reagent no.": 1, "G2 robust z-score": 1.72}
{"Target gene": "KCNQ4 (potassium voltage-gated channel subfamily Q member 4)", "reagent no.": 2, "G2 robust z-score": 3.15}
{"Target gene": "KCNQ4 (potassium voltage-gated channel subfamily Q member 4)", "reagent no.": 3, "G2 robust z-score": -0.827}

Looked up above.
For “G2 robust z-score”, SV2B (synaptic vesicle glycoprotein 2B) #2 is entered as 1.09
LINC00615 (long independently transcribed non-coding RNA 615) #3, G2 robust z-score → -1.09
